{"source": "PubChem BioAssay AID1671195 (Yale University, 2021)", "aim": "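Regulators of LDL receptor activity judged by labelled LDL uptake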 (primary screen)", "system": "human Huh7 hepatoma cells", "reagents": "siRNA pool against human genes, 18 nM", "time to read-out": "about 2 to 2.5 days of knockdown, then 8 h LDL uptake", "conditions": "DiI-labelled LDL at 30 µg/ml for 8 h, in lipoprotein-deficient serum medium", "measurement": "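Fluorescent LDL signal imaged in cells, scaled to the plate median, robust z-score for each replicate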", "reading the numbers": "robust z-score: higher = more LDL uptake after knockdown", "rule for the call": "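a gene counts as active if at least two replicate z-scores exceed ±2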", "note": "The whole screen tested about 22,000 reagents; this is a part drawn at random. In the full data, about 1,510 (6.9%) are marked active. 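Active includes knockdowns raising or lowering LDL uptake; positive z-scores mean more uptake, negative mean less.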 Unmarked entries are inactive. Reagent sequences are not shown."}
{"gene knocked down":"NDOR1","robust z-score, replicate 1":1.21,"robust z-score, replicate 2":-0.23,"robust z-score, replicate 3":0.328}
{"gene knocked down":"PIANP","robust z-score, replicate 1":-0.645,"robust z-score, replicate 2":-1.13,"robust z-score, replicate 3":0.0471}
{"gene knocked down":"ZC3H11C","robust z-score, replicate 1":0.356,"robust z-score, replicate 2":-0.196,"robust z-score, replicate 3":-0.108}
{"gene knocked down":"C16orf46","robust z-score, replicate 1":0.892,"robust z-score, replicate 2":0.334,"robust z-score, replicate 3":0.76}
{"gene knocked down":"AADAT","robust z-score, replicate 1":-0.141,"robust z-score, replicate 2":-0.475,"robust z-score, replicate 3":-0.691}
{"gene knocked down":"RALGPS1","robust z-score, replicate 1":-0.621,"robust z-score, replicate 2":-0.941,"robust z-score, replicate 3":-1.55}
{"gene knocked down":"MSI2","robust z-score, replicate 1":-0.79,"robust z-score, replicate 2":-0.692,"robust z-score, replicate 3":-0.495}
{"gene knocked down":"MTTP","robust z-score, replicate 1":1.07,"robust z-score, replicate 2":0.36,"robust z-score, replicate 3":0.979}

4 of these entries in another layout:
gene knocked down	robust z-score, replicate 1	robust z-score, replicate 2	robust z-score, replicate 3
ZC3H11C	0.356	-0.196	-0.108
C16orf46	0.892	0.334	0.76
AADAT	-0.141	-0.475	-0.691
RALGPS1	-0.621	-0.941	-1.55

The results go on.
{"gene knocked down":"GMPPB","robust z-score, replicate 1":-0.528,"robust z-score, replicate 2":-0.597,"robust z-score, replicate 3":0.593}
{"gene knocked down":"RP2","robust z-score, replicate 1":-1.35,"robust z-score, replicate 2":-0.863,"robust z-score, replicate 3":-0.651}
{"gene knocked down":"APOL6","robust z-score, replicate 1":-0.88,"robust z-score, replicate 2":-0.619,"robust z-score, replicate 3":-0.689}
{"gene knocked down":"ANKRD18B","robust z-score, replicate 1":1.14,"robust z-score, replicate 2":0.284,"robust z-score, replicate 3":0.488}
{"gene knocked down":"ADGRE4P","robust z-score, replicate 1":"1.76 (active)","robust z-score, replicate 2":3.72,"robust z-score, replicate 3":3.21}
{"gene knocked down":"FXYD6","robust z-score, replicate 1":-0.319,"robust z-score, replicate 2":-0.0898,"robust z-score, replicate 3":0.157}
{"gene knocked down":"CDR2-DT","robust z-score, replicate 1":-0.178,"robust z-score, replicate 2":0.399,"robust z-score, replicate 3":-0.246}
{"gene knocked down":"SYNPR","robust z-score, replicate 1":0.426,"robust z-score, replicate 2":0.237,"robust z-score, replicate 3":0.146}
{"gene knocked down":"CFAP96","robust z-score, replicate 1":0.988,"robust z-score, replicate 2":0.812,"robust z-score, replicate 3":0.794}
{"gene knocked down":"FDPS","robust z-score, replicate 1":-1.42,"robust z-score, replicate 2":-0.819,"robust z-score, replicate 3":-0.878}
{"gene knocked down":"LINC00319","robust z-score, replicate 1":1.88,"robust z-score, replicate 2":1.96,"robust z-score, replicate 3":1.26}
{"gene knocked down":"PPP2CB","robust z-score, replicate 1":-0.0213,"robust z-score, replicate 2":-1.35,"robust z-score, replicate 3":-0.0954}
{"gene knocked down":"RPS17P10","robust z-score, replicate 1":1.16,"robust z-score, replicate 2":1.04,"robust z-score, replicate 3":0.962}
{"gene knocked down":"MEGF10","robust z-score, replicate 1":-0.512,"robust z-score, replicate 2":-0.823,"robust z-score, replicate 3":0.489}
{"gene knocked down":"SLC8A1","robust z-score, replicate 1":0.904,"robust z-score, replicate 2":0.252,"robust z-score, replicate 3":1.28}
{"gene knocked down":"GPATCH11P1","robust z-score, replicate 1":-1.47,"robust z-score, replicate 2":-1.14,"robust z-score, replicate 3":-1.51}
